The other results are listed elsewhere or left out. Further columns of the screen follow, without active or inactive calls. Most of these compounds were active or inconclusive in the main read-out, so they are no random draw. The note in brackets gives the kind of curve behind each potency; many fits are weak.
Assay: qHTS Assay for Modulators of Lamin A Splicing
Settings: HeLa LMNA splicing GFP/RFP minigene ratio, 48 h
Procedure, shortened: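 Read-out is the ratio of GFP to DsRed2 object intensity, acquired by 488 nm laser-scanning cytometry on HeLa lamin A-EGFP minigene reporter cells. Compound incubation 48 hrs at 37 °C in Opti-MEM with 2% FBS; DMSO 0.5% final.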

[1] = measured here: GFP splicing reporter channel
[2] = measured here: RFP viability control channel

For `COc1cccc(/C=N/NC(=O)C(=O)N/N=C/c2cccc(OC)c2OC)c1OC`, the AC50 [1] was 17.8 µM [falling, partial curve, poor fit] and the AC50 [2] was 1.26 µM [falling, full curve, poor fit].
In the case of `CCOC(=O)C1CCCN(C(=O)c2ccc(C)c(NC(=O)c3nsc4ccccc34)c2)C1` (stereo not given), the AC50 [1] was 0.562 µM [rising, single point].
With `C1CCC(C(CC2CCCCN2)C2CCCCC2)CC1` (stereo not given) the AC50 [1] was 2.24 µM [falling, partial curve] and the AC50 [2] was 7.08 µM [falling, partial curve].
In the case of `O=C1/C(=C\c2ccccc2)CCc2c1[nH]c1ccccc21`, the AC50 [2] was 6.31 µM [rising, full curve, poor fit].
With `Nc1c(S(=O)(=O)c2ccccc2)c2nc3ccccc3nc2n1/N=C/c1cccc(O)c1` the AC50 [1] was 17.8 µM [rising, single point] and the AC50 [2] was 35.5 µM [rising, single point].
In the case of `CCOC(=O)CN(Cc1ccccc1)S(=O)(=O)c1ccc(NC(C)=O)cc1`, the AC50 [1] was 35.5 µM [rising, single point] and the AC50 [2] was 35.5 µM [rising, single point].
With `Cc1ccc(O)c(NC(=O)C2CC(c3c(F)cccc3Cl)=NO2)c1` (stereo not given) the AC50 [1] was 14.1 µM [rising, partial curve] and the AC50 [2] was 35.5 µM [rising, single point].
In the case of `CCN1C(=O)/C(=C2/Sc3ccc(OC)cc3N2C)SC1=Nc1ccc(OC)cc1`, the AC50 [1] was 0.398 µM [rising, full curve, poor fit].
In the case of `COC(=O)c1ccc(C(=O)OC)c(NC(=O)CSc2cccc[n+]2[O-])c1`, the AC50 [1] was 6.31 µM [falling, full curve] and the AC50 [2] was 7.08 µM [falling, full curve].
In the case of `CCN(CC)c1ccc2cc(-c3nnc(-c4ccccc4)o3)c(=O)oc2c1`, the AC50 [2] was 2.51 µM [falling, single point].
In the case of `Cn1nc(C(F)(F)F)c(C#N)c1N1CCN(c2ccccc2F)CC1`, the AC50 [1] was 15.8 µM [rising, single point] and the AC50 [2] was 35.5 µM [rising, single point].
With `CCOc1ccc(C(=O)c2nc3c(n2O)CCCC3)cc1` the AC50 [1] was 1 µM [rising, partial curve, poor fit].
With `COc1ccc(CCNC(=O)C2CCN(Cc3nc(-c4cccc(Cl)c4)oc3C)CC2)cc1OC` the AC50 [1] was 15.8 µM [rising, partial curve] and the AC50 [2] was 25.1 µM [rising, single point].
In the case of `Oc1ccccc1CNCCCNCc1ccccc1O`, the AC50 [1] was 25.1 µM [rising, single point].
For `COc1ccc(C(=O)c2cc([N+](=O)[O-])ccc2N2CCCC2)cc1`, the AC50 [1] was 15.8 µM [rising, single point] and the AC50 [2] was 14.1 µM [rising, partial curve].
With `Cc1ccc(CNS(=O)(=O)c2ccc3c(c2)OCCO3)cc1` the AC50 [2] was 22.4 µM [rising, single point].
For `COc1cc(C(c2c(C)[nH][nH]c2=O)c2c(C)[nH][nH]c2=O)ccc1OS(=O)(=O)c1ccccc1`, the AC50 [2] was 6.31 µM [falling, single point].
With `Cc1nc(NC(=O)c2ccc(Cl)cc2)sc1Cc1ccc2c(c1)OCO2` the AC50 [1] was 7.08 µM [rising, full curve, poor fit] and the AC50 [2] was 5.01 µM [rising, full curve].
With `CC(/C=N/n1c(-c2ccc(C)cc2)n[nH]c1=S)=C\c1ccco1` the AC50 [2] was 22.4 µM [rising, partial curve].
For `COc1cccc(CNCCc2c[nH]c3ccccc23)c1OCc1ccccc1F`, the AC50 [1] was 3.16 µM [falling, single point] and the AC50 [2] was 5.62 µM [falling, single point].
In the case of `CC(NC(=S)Nc1ccc(OC(F)F)c(Cl)c1)C(C)(C)C` (stereo not given), the AC50 [2] was 35.5 µM [rising, partial curve].
For `FC(F)(F)c1ccccc1-c1cncnc1NCCN1CCOCC1`, the AC50 [1] was 11.2 µM [falling, partial curve] and the AC50 [2] was 11.2 µM [falling, partial curve].
With `COc1cccc(S(=O)(=O)NCC(=O)Nc2ccc(C(C)(C)C)cc2)c1` the AC50 [1] was 35.5 µM [rising, single point] and the AC50 [2] was 35.5 µM [rising, single point].
In the case of `Cc1ccc(OCC(=O)Nc2c[nH]c(=O)[nH]c2=O)cc1C`, the AC50 [1] was 35.5 µM [falling, single point].
For `O=C(O)c1ccc(/C=N/NC(=S)NC2CCCCC2)cc1`, the AC50 [1] was 10 µM [rising, partial curve, poor fit].
With `CCn1cc(CN2CCc3c([nH]c4ccccc34)C2c2ccc(F)c(OC)c2)c(C)n1` (stereo not given) the AC50 [1] was 3.98 µM [rising, single point].
With `Cc1ccc(CN2CCN(Cc3ccccc3-c3ccco3)CC2CCO)o1` (stereo not given) the AC50 [2] was 2.82 µM [falling, partial curve, poor fit].
For `CCN1CCN(CC(=O)Nc2sc3c(c2C#N)CCC(C)C3)CC1` (stereo not given), the AC50 [1] was 15.8 µM [falling, single point] and the AC50 [2] was 22.4 µM [falling, single point].
With `COC(=O)c1ccc(C2C3=C(Nc4nnnn42)c2ccccc2OC3)cc1` (stereo not given) the AC50 [2] was 35.5 µM [rising, single point].
With `Cc1cc(-n2c(C)cc(C(=O)CSc3nnnn3-c3ccccc3)c2C)no1` the AC50 [1] was 10 µM [rising, partial curve, poor fit] and the AC50 [2] was 25.1 µM [rising, single point].
With `COCCn1c(C(=O)N2CCCC2)cc2c1C[C@H]1CN(C(=O)c3ccccc3)[C@@](Cc3ccc(F)cc3)(C(=O)OC)[C@@H]21` the AC50 [2] was 15.8 µM [rising, single point].
For `CC1CN(S(=O)(=O)c2ccc(-c3nc4ccccc4s3)cc2)CC(C)O1` (stereo not given), the AC50 [1] was 6.31 µM [falling, single point].
With `Cc1ccc(N/C=C/C(=O)c2ccccc2)cc1C` the AC50 [1] was 28.2 µM [rising, single point] and the AC50 [2] was 17.8 µM [rising, single point].
For `CCn1c2ccccc2c2cc(NC(=O)C(C)C)ccc21`, the AC50 [2] was 35.5 µM [falling, single point].

Reference: PubChem BioAssay AID1487 (National Center for Advancing Translational Sciences (NCATS), 2009)
